Patent publication US10774047B2 (THE TRUSTEES OF THE UNIVERSITY OF PENNSYLVANIA, priority 2015, dated 2020)

What follows are compounds tested on PANC1 and A375P cells (assay: Subcellular localization by inherent fluorescence microscopy). Conditions: 6 hr, 3 μM, FIG. 2D.
Format: cell-based

| SMILES | subcellular localization (green/red fluorescence) |
| --- | --- |
| COc1ccc2nc3cc(Cl)ccc3c(NCCCCCNCCCCCNc3c4ccc(Cl)cc4nc4ccc(OC)cc34)c2c1 [DQ 550] | strong green fluorescence in the nuclear compartment with little to no detectable red fluorescence |
| COc1ccc2nc3cc(Cl)ccc3c(NCCCCCN(C)CCCCCNc3c4ccc(Cl)cc4nc4ccc(OC)cc34)c2c1 [DQ 551] | strong red fluorescence in the perinuclear compartment where lysosomes reside |
| COc1ccc2nc3cc(Cl)ccc3c(NCCCCCCNCCCCCCNc3c4ccc(Cl)cc4nc4ccc(OC)cc34)c2c1 [DQ 660] | strong green fluorescence in the nuclear compartment with little to no detectable red fluorescence |
| COc1ccc2nc3cc(Cl)ccc3c(NCCCCCCN(C)CCCCCCNc3c4ccc(Cl)cc4nc4ccc(OC)cc34)c2c1 [DQ 661] | strong red fluorescence in the perinuclear compartment where lysosomes reside |
